Experimental data: patent publication US20260055117A1, “SUBSTITUTED PYRIDONE GPR84 ANTAGONISTS AND USES THEREOF” (Liminal BioSciences Limited, priority 2022, published 2026)
Structures were worked out from names or drawings and are uncertain.

Sequences of proteins named here, by UniProt entry; tags and fusion partners are left off.
UniProt Q9NQS5, whole entry: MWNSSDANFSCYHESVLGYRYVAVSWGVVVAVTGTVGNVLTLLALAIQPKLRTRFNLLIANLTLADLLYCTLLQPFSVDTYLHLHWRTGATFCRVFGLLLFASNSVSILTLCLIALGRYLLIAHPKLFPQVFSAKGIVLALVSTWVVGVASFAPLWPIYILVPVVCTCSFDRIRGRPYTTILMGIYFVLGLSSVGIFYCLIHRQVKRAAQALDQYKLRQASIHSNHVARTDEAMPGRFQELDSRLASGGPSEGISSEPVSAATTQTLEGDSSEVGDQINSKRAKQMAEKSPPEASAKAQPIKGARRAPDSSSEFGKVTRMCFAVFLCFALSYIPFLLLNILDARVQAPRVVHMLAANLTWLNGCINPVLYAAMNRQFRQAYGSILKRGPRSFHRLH

Target: human GPR84 receptor (Homo sapiens, UniProt Q9NQS5)
Experiment: Gαi biosensor BRET assay (GPR84 antagonism vs agonist ZQ-16)
Settings: HEK293 cells, 200 nmol/L agonist ZQ-16; for IC50: read-out: BRET Assay (IC50) Activity, Gαi biosensor BRET assay

| BRET Assay (% Inhibition) Activity (tested at 10 μM (concentration code D)) | SMILES | IC50 | BRET Assay (% Inhibition) Activity (tested at 2 μM (concentration code A)) |
| --- | --- | --- | --- |
| **** (percent inhibition of >75%) | Cc1cc(OCC(=O)N2CCC[C@H]2C(=O)O)cc(=O)n1[C@H](C)c1ccc(C#CC2CC2)cc1 | 300 to 1000 nM |  |
|  | Cc1cc(OCC(=O)N2CCC[C@@H]2CO)cc(=O)n1[C@H](C)c1ccc(C#CC2CC2)cc1 | < 300 nM | **** (percent inhibition of >75%) |
